Measured values: publication PMC4660820
These are yes or no findings as the source states them, for the method shown. Binding seen in cells or lysates may run through a third protein.

By UniProt entry, the sequences of proteins in these tests, tags left out. Residues count along the entry.
UniProt Q9Y6B6: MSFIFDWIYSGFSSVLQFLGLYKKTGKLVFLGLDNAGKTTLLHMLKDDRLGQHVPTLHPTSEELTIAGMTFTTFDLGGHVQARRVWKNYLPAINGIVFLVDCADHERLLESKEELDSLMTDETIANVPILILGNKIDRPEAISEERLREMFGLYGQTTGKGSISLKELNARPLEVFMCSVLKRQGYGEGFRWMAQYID
UniProt P30101, residues 25-505: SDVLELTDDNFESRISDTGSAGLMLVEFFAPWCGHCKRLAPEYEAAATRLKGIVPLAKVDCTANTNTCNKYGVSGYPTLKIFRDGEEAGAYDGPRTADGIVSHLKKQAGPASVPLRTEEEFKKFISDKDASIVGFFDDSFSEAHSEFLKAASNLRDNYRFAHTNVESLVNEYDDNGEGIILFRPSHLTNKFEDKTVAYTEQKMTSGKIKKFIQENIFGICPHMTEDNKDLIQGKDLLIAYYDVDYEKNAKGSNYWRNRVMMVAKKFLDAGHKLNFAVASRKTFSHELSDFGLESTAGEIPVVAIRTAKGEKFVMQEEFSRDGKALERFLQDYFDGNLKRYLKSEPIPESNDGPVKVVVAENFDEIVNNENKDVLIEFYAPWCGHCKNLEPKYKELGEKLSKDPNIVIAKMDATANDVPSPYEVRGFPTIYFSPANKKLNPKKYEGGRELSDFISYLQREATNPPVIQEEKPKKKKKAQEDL

Target: SAR1B (human (endogenous in VA-13, HepG2-derived)) (UniProt Q9Y6B6)
Experiment: co-IP; Pierce Co-Immunoprecipitation Kit; lysates of VA-13 cells, control or treated with 35 mM ethanol for 72 h; lysates normalised by the target protein; non-specific mouse and rabbit IgG as controls; Western blot

binding: no binding
Substance: protein disulfide isomerase A3 (human) (from UniProt P30101 25-505) (enzyme)
